PubChem BioAssay AID1671195, Yale University | 2021
This is one part, drawn at random, of about 22,000 reagents tested. Of all reagents, about 1,510 (6.9%) got an active call. 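Active includes knockdowns raising or lowering LDL uptake; positive z-scores mean more uptake, negative mean less.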 The numbers tell different reagents against one gene apart.

Assay: 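Knockdowns that increase or decrease uptake of fluorescent LDL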 (primary screen)
Cells: human Huh7 hepatoma cells
Reagents: siRNA pool against human genes, 18 nM
Timing: about 2 to 2.5 days of knockdown, then 8 h LDL uptake
Challenge: DiI-labelled LDL at 30 µg/ml for 8 h, in lipoprotein-deficient serum medium
Measured: 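Per-cell DiI-LDL intensity by automated imaging; well means scaled to the plate median and given as a robust z-score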
Scale: robust z-score: higher = more LDL uptake after knockdown
Hit rule: 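a gene counts as active if at least two replicate z-scores exceed ±2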

TIPIN — robust z-score, replicate 1: 2.18; robust z-score, replicate 2: 2.3; robust z-score, replicate 3: 1.66; call: active
ESR1 — robust z-score, replicate 1: -0.801; robust z-score, replicate 2: -1.18; robust z-score, replicate 3: -1; call: inactive
LOC149157 (retired record) — robust z-score, replicate 1: -2.07; robust z-score, replicate 2: -2.11; robust z-score, replicate 3: -1.82; call: active
SLC26A2 — robust z-score, replicate 1: -1.06; robust z-score, replicate 2: -1.29; robust z-score, replicate 3: -0.945; call: inactive
FTSJ3 — robust z-score, replicate 1: 0.657; robust z-score, replicate 2: -0.294; robust z-score, replicate 3: 0.164; call: inactive
B9D2 — robust z-score, replicate 1: -0.12; robust z-score, replicate 2: 0.855; robust z-score, replicate 3: -0.103; call: inactive
CACNG4 — robust z-score, replicate 1: -0.676; robust z-score, replicate 2: -0.358; robust z-score, replicate 3: -0.413; call: inactive
C9orf153 — robust z-score, replicate 1: -0.305; robust z-score, replicate 2: -0.305; robust z-score, replicate 3: -0.456; call: inactive
OR2D2 — robust z-score, replicate 1: -1.05; robust z-score, replicate 2: -0.782; robust z-score, replicate 3: -1.06; call: inactive
NHEJ1 — robust z-score, replicate 1: 0.648; robust z-score, replicate 2: 0.356; robust z-score, replicate 3: 0.0975; call: inactive
GJB4 — robust z-score, replicate 1: 1.11; robust z-score, replicate 2: 2.15; robust z-score, replicate 3: 1.51; call: inactive
KDM7A — robust z-score, replicate 1: 0.427; robust z-score, replicate 2: -0.422; robust z-score, replicate 3: 0.61; call: inactive
PRPS1 — robust z-score, replicate 1: -0.351; robust z-score, replicate 2: -0.384; robust z-score, replicate 3: -0.564; call: inactive
EEF1B2 — robust z-score, replicate 1: -1.18; robust z-score, replicate 2: -1.06; robust z-score, replicate 3: -0.832; call: inactive
HOXD1 — robust z-score, replicate 1: -0.561; robust z-score, replicate 2: -0.287; robust z-score, replicate 3: -0.493; call: inactive
ZNF721 — robust z-score, replicate 1: -1.81; robust z-score, replicate 2: -0.885; robust z-score, replicate 3: -0.949; call: inactive
CALN1 — robust z-score, replicate 1: 0.729; robust z-score, replicate 2: 0.417; robust z-score, replicate 3: 0.516; call: inactive
FANCA — robust z-score, replicate 1: 0.93; robust z-score, replicate 2: -0.399; robust z-score, replicate 3: 0.485; call: inactive
CILK1 — robust z-score, replicate 1: 1.42; robust z-score, replicate 2: 0.88; robust z-score, replicate 3: 1.74; call: inactive
VPS28 — robust z-score, replicate 1: -2.1; robust z-score, replicate 2: 0.0728; robust z-score, replicate 3: -1.7; call: inactive
PRUNE2 #1 — robust z-score, replicate 1: -0.323; robust z-score, replicate 2: 0.887; robust z-score, replicate 3: 0.19; call: inactive
PRUNE2 #2 — robust z-score, replicate 1: -0.166; robust z-score, replicate 2: -1.13; robust z-score, replicate 3: -0.0981; call: inactive
DHH — robust z-score, replicate 1: 0.693; robust z-score, replicate 2: 1.29; robust z-score, replicate 3: -0.323; call: inactive
PNMA1 — robust z-score, replicate 1: -0.988; robust z-score, replicate 2: 0.277; robust z-score, replicate 3: -0.37; call: inactive
RHOB — robust z-score, replicate 1: -0.798; robust z-score, replicate 2: 1.37; robust z-score, replicate 3: 0.224; call: inactive
PCDHB4 — robust z-score, replicate 1: -0.906; robust z-score, replicate 2: -0.371; robust z-score, replicate 3: -0.451; call: inactive
KRT86 — robust z-score, replicate 1: 1.18; robust z-score, replicate 2: 0.00999; robust z-score, replicate 3: 0.29; call: inactive
TXNDC9 — robust z-score, replicate 1: 0.612; robust z-score, replicate 2: -0.143; robust z-score, replicate 3: 0.0897; call: inactive
EEF1DP3 — robust z-score, replicate 1: -0.196; robust z-score, replicate 2: -0.691; robust z-score, replicate 3: -0.327; call: inactive
MLN — robust z-score, replicate 1: -1.42; robust z-score, replicate 2: -2.03; robust z-score, replicate 3: -1.06; call: inactive
